# From article doi:10.1101/2022.06.02.494603
# Amino acid sequences for entries named in this document (tags omitted). A change or cut given only in a name is not applied to a line headed by its entry.
# UniProt Q96CV9: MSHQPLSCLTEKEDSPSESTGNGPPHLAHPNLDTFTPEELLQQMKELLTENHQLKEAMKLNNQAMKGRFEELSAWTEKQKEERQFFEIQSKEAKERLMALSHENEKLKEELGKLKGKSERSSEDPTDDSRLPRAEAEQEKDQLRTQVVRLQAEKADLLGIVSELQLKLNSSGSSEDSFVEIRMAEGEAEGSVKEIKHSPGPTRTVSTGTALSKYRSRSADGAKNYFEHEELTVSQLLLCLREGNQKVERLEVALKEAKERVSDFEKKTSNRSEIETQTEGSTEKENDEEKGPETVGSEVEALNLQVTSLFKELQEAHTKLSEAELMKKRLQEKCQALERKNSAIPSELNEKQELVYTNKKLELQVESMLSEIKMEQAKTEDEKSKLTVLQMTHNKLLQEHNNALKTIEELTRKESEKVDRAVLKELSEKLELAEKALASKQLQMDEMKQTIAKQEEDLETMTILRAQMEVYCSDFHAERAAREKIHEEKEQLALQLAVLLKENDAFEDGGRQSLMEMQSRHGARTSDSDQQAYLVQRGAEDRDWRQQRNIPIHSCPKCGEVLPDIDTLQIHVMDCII
# UniProt Q9UHD2: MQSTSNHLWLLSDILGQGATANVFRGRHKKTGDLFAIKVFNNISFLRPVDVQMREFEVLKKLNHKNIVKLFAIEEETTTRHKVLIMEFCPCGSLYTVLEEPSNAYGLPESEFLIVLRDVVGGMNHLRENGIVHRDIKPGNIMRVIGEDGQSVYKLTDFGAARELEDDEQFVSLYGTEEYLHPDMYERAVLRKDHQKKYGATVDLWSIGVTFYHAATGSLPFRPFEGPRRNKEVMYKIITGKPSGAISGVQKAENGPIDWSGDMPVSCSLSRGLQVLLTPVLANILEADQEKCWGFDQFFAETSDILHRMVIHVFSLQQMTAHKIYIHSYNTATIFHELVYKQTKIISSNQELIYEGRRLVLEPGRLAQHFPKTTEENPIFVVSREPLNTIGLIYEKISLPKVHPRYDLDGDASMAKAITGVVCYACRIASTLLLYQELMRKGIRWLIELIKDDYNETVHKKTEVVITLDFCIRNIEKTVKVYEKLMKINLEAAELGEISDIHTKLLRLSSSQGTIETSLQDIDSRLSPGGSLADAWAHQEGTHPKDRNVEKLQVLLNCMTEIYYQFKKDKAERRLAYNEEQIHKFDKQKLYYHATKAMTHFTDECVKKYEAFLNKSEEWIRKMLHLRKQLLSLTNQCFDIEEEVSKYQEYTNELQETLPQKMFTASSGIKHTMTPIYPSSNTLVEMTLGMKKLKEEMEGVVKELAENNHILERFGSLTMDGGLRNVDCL
# Results are given in words; binding and its absence hold for the method and conditions named. In cells and extracts the contact can be indirect. Some results given as binding are weak or reduced against the parent protein; the word gives no strength.
# Biological target: optineurin, C-terminal myc-FLAG-tagged (UniProt Q96CV9)
# Assay: co-IP
row,Substance,binding
1,"TBK1 R308Q, untagged (from UniProt Q9UHD2 1-729)",binds
2,"TBK1 del690-729, untagged (from UniProt Q9UHD2 1-689) (domain or fragment)",no binding
3,"TBK1 p.R440X, untagged (from UniProt Q9UHD2 1-439) (domain or fragment)",no binding
